Results reported in US20150087053A1, “COMPOSITIONS AND METHODS FOR INCREASING THE EXPRESSION AND SIGNALLING OF PROTEINS ON CELL SURFACES” (THE JOHNS HOPKINS UNIVERSITY, priority 2013, published 2015).

Tested on: HEK293T cells
Assay: Surface immunofluorescence (Flag antibody) of OR constructs in live non-permeabilized cells
Type: cell-based
Set-up: key to Trafficking (surface expression) of Flag-tagged OR / Trafficking (surface expression) of Flag-tagged Rho-OR: −: No detectable OR surface expression; +: OR surface expression detected in the majority of fields of view (>90% of all fields of view); *: OR surface expression detected in a minority of fields of view (<50% of all fields of view)
Conditions: for Trafficking (surface expression) of Flag-tagged OR: OR without Rho or Lucy tag

Molecule	Trafficking (surface expression) of Flag-tagged Lucy-OR (chaperones RTP1S, Ric8b, Gαolf)	Trafficking (surface expression) of Flag-tagged Lucy-OR (chaperones: None)	Trafficking (surface expression) of Flag-tagged Lucy-Rho-OR (chaperones RTP1S, Ric8b, Gαolf)	Trafficking (surface expression) of Flag-tagged Lucy-Rho-OR (chaperones: None)	Trafficking (surface expression) of Flag-tagged OR (chaperones RTP1S, Ric8b, Gαolf)	Trafficking (surface expression) of Flag-tagged OR (chaperones: None)	Trafficking (surface expression) of Flag-tagged Rho-OR (chaperones RTP1S, Ric8b, Gαolf)	Trafficking (surface expression) of Flag-tagged Rho-OR (chaperones: None)
hOR51E2: human olfactory receptor OR51E2, Flag-tagged construct (protein, UniProt Q9H255 1-320, looked up, Flag tag, human olfactory receptor OR51E2, Flag-tagged construct) Olfactory receptor 51E2: MSSCNFTHATFVLIGIPGLEKAHFWVGFPLLSMYVVAMFGNCIVVFIVRTERSLHAPMYLFLCMLAAIDLALSTSTMPKILALFWFDSREISFEACLTQMFFIHALSAIESTILLAMAFDRYVAICHPLRHAAVLNNTVTAQIGIVAVVRGSLFFFPLPLLIKRLAFCHSNVLSHSYCVHQDVMKLAYADTLPNVVYGLTAILLVMGVDVMFISLSYFLIIRTVLQLPSKSERAKAFGTCVSHIGVVLAFYVPLIGLSVVHRFGNSLHPIVRVVMGDIYLLLPPVINPIIYGAKTKQIRTRVLAMFKISCDKDLQAVGGK	+ (OR surface expression detected in the majority of fields of view (>90% of all fields of view))	+ (OR surface expression detected in the majority of fields of view (>90% of all fields of view))	+ (OR surface expression detected in the majority of fields of view (>90% of all fields of view))	+ (OR surface expression detected in the majority of fields of view (>90% of all fields of view))	+ (OR surface expression detected in the majority of fields of view (>90% of all fields of view))	+ (OR surface expression detected in the majority of fields of view (>90% of all fields of view))	+ (OR surface expression detected in the majority of fields of view (>90% of all fields of view))	+ (OR surface expression detected in the majority of fields of view (>90% of all fields of view))
hOR52B2: human homologue of Olfr691, Flag-tagged olfactory receptor construct (protein, UniProt Q96RD2 1-323, looked up, Flag tag, human homologue of Olfr691, Flag-tagged olfactory receptor construct) Olfactory receptor 52B2: MSHTNVTIFHPAVFVLPGIPGLEAYHIWLSIPLCLIYITAVLGNSILIVVIVMERNLHVPMYFFLSMLAVMDILLSTTTVPKALAIFWLQAHNIAFDACVTQGFFVHMMFVGESAILLAMAFDRFVAICAPLRYTTVLTWPVVGRIALAVITRSFCIIFPVIFLLKRLPFCLTNIVPHSYCEHIGVARLACADITVNIWYGFSVPIVMVILDVILIAVSYSLILRAVFRLPSQDARHKALSTCGSHLCVILMFYVPSFFTLLTHHFGRNIPQHVHILLANLYVAVPPMLNPIVYGVKTKQIREGVAHRFFDIKTWCCTSPLGS	+ (OR surface expression detected in the majority of fields of view (>90% of all fields of view))	+ (OR surface expression detected in the majority of fields of view (>90% of all fields of view))	+ (OR surface expression detected in the majority of fields of view (>90% of all fields of view))	+ (OR surface expression detected in the majority of fields of view (>90% of all fields of view))	−	−	−	−
